Measurements published in US20250205372A1 (The Research Foundation for The State University of New York, priority 2022, published 2025).

Assay: general procedure: Fmoc solid-phase peptide synthesis; TentaGel S-NH2 (0.26 mmol/g); Wang resin (0.8 mmol/g); 2-chlorotrityl chloride resin (1.0 mmol/g); PyBOP/DIEA
Conditions: late stage modification step

Row | Substance | step yield
1 | Copper 2,2′-(7-((5S,8S)-5-((1H-indol-3-yl)methyl)-8-(3-amino-3-oxopropyl)-1-carboxy-2-(2-nitrophenyl)-4,7,10,17-tetraoxo-3,6,9,16-tetraazaoctadecan-18-yl)-1,4,7-triazonane-1,4-diyl)diacetate | 30%
2 | Di-tert-butyl2,2′-(7-((11S,14S)-14-((1-(tert-butoxycarbonyl)-1H-indol-3-yl)methyl)-19-((2,5-ioxopyrrolidin-1-yl)oxy)-17-(2-nitrophenyl)-2,9,12,15,19-pentaoxo-11-(3-oxo-3-(tritylamino)propyl)-3,10,13,16-tetraazanonadecyl)-1,4,7-triazonane-1,4-diyl)diacetate | 85%
3 | Gallium 2,2′-(7-((5S,8S)-5-((1H-indol-3-yl)methyl)-8-(3-amino-3-oxopropyl)-1-carboxy-2-(2-nitrophenyl)-4,7,10,17-tetraoxo-3,6,9,16-tetraazaoctadecan-18-yl)-1,4,7-triazonane-1,4-diyl)diacetate | 32%
4 | 2,2′-(7-((11S,14S)-14-((1H-indol-3-yl)methyl)-11-(3-amino-3-oxopropyl)-19-((2,5-dioxopyrrolidin-1-yl)oxy)-17-(2-nitrophenyl)-2,9,12,15,19-pentaoxo-3,10,13,16-tetraazanonadecyl)-1,4,7-triazonane-1,4-diyl)diacetic acid | 60%
